Data from paper doi:10.1101/2024.06.24.600492.
Results are given in words; binding and its absence hold for the method and conditions named. In cells and extracts the contact can be indirect. Some results given as binding are weak or reduced against the parent protein; the word gives no strength.

Sequences of proteins named here, by UniProt entry; tags and fusion partners are left off. Residues count along the entry.
UniProt P18206, 1-836: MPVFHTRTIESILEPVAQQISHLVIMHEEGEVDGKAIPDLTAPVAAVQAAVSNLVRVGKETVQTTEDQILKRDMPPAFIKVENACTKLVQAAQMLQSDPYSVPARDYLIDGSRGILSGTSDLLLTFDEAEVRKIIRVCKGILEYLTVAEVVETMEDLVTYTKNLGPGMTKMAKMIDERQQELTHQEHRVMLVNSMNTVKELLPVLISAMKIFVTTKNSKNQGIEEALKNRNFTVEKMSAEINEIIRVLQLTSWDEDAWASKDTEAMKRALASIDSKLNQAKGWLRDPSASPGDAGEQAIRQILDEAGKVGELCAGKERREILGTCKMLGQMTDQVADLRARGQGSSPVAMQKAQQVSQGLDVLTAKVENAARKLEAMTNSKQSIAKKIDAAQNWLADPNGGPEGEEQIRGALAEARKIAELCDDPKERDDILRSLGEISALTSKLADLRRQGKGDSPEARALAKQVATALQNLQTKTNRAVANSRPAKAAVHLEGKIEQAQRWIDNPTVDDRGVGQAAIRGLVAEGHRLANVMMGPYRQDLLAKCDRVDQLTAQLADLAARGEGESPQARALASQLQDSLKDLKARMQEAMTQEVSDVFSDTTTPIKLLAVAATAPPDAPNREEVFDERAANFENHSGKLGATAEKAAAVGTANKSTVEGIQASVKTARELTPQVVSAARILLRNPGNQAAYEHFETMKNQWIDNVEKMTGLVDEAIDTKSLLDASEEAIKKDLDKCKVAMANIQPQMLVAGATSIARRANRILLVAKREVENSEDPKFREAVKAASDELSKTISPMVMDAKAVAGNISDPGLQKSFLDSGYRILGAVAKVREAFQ

Target: 3xFLAG-Sca4 (full-length R. parkeri Sca4) (Rickettsia parkeri) (UniProt Q9AJ75)
Test: co-IP

## V5-vinculin head domain (V5-Vinc 1-836aa) (from UniProt P18206 1-836) (domain or fragment)
  binding: binds
